PubChem BioAssay AID743121 | NCATS | 2013

Assay: 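Partners whose loss is lethal together with topoisomerase I blockade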 (primary screen)
Cells: MDA-MB-231 cells, a human breast cancer line
Reagent: single siRNA against human genes, 20 nM siRNA (0.8 pmol per well)
Timing: 120 h (drug added 48 h after transfection, read 72 h later)
Treatment: camptothecin 20 nM (about EC30) for 72 h; vehicle 0.1% DMSO in parallel plates
Read-out: 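CellTiter-Glo ATP signal, scaled to control siRNA as percent viability; sensitisation given as log2 of untreated divided by camptothecin-treated viability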
Reading the numbers: log2 vehicle/camptothecin viability: higher = stronger sensitisation to camptothecin
Active means: 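Each gene scored by redundant siRNA activity (RSA) over its individual siRNA ratios; a gene is called active at p < 0.001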
The deposit covers about 26,000 reagents; shown is a random part of them. 167 of all reagents (0.63%) count as active. 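Calls are per gene from RSA p-values that are not deposited; an individual active-marked siRNA can sensitise only weakly.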 Reagents against one gene are numbered here. Not all columns of the deposit are shown. Reagent sequences are not shown.

Knock-down of TSPOAP1 (GeneID 9256) #1 came out at: log2 vehicle/camptothecin viability -0.072; inactive. TSPOAP1 (GeneID 9256) #2 gave log2 vehicle/camptothecin viability -0.168; inactive. For TSPOAP1 (GeneID 9256) #3 the deposit lists log2 vehicle/camptothecin viability -0.232; inactive. Against INS (GeneID 3630) #1, the values are log2 vehicle/camptothecin viability 1.19; inactive. After knock-down of INS (GeneID 3630) #2, the screen gave log2 vehicle/camptothecin viability 0.256; inactive. Depletion of INS (GeneID 3630) #3 gave: log2 vehicle/camptothecin viability -0.328; inactive.

With knock-down of INS (GeneID 3630) #4, the screen gave log2 vehicle/camptothecin viability -0.439; inactive. For KCNMB4 (GeneID 27345) #1 the deposit lists log2 vehicle/camptothecin viability -0.267; inactive. Depletion of KCNMB4 (GeneID 27345) #2 came out at: log2 vehicle/camptothecin viability -0.0742; inactive. Silencing of KCNMB4 (GeneID 27345) #3 resulted in: log2 vehicle/camptothecin viability -0.248; inactive. With knock-down of KCNMB4 (GeneID 27345) #4, the screen gave log2 vehicle/camptothecin viability -0.444; inactive. With knock-down of CDC7 (GeneID 8317) #1, the screen gave log2 vehicle/camptothecin viability -0.355; inactive.

Depletion of CDC7 (GeneID 8317) #2 came out at: log2 vehicle/camptothecin viability 0.511; inactive. After knock-down of CDC7 (GeneID 8317) #3, the record shows log2 vehicle/camptothecin viability -0.0188; inactive. After knock-down of DNAJB7 (GeneID 150353) #1, the record shows log2 vehicle/camptothecin viability -0.0313; inactive. For DNAJB7 (GeneID 150353) #2, the entry reads log2 vehicle/camptothecin viability -0.55; inactive. Depletion of DNAJB7 (GeneID 150353) #3 came out at: log2 vehicle/camptothecin viability 0.421; inactive. After knock-down of OR1Q1 (GeneID 158131) #1, the screen gave log2 vehicle/camptothecin viability -0.255; inactive.

OR1Q1 (GeneID 158131) #2 scored log2 vehicle/camptothecin viability -0.543; inactive. Against OR1Q1 (GeneID 158131) #3 the deposit lists log2 vehicle/camptothecin viability -0.183; inactive. Depletion of OR1Q1 (GeneID 158131) #4 gave: log2 vehicle/camptothecin viability -0.133; inactive.

5 of these entries, reformatted:
Target gene | reagent | log2 vehicle/camptothecin viability | Call
KCNMB4 (GeneID 27345) | 4 | -0.444 | inactive
CDC7 (GeneID 8317) | 1 | -0.355 | inactive
CDC7 (GeneID 8317) | 2 | 0.511 | inactive
CDC7 (GeneID 8317) | 3 | -0.0188 | inactive
DNAJB7 (GeneID 150353) | 1 | -0.0313 | inactive

The list goes on.
After knock-down of GPR137 (GeneID 56834) #1, the record shows log2 vehicle/camptothecin viability -0.134; inactive. After knock-down of GPR137 (GeneID 56834) #2 the results were log2 vehicle/camptothecin viability -0.364; inactive. Against GPR137 (GeneID 56834) #3, the values are log2 vehicle/camptothecin viability -0.515; inactive. Against GPR137 (GeneID 56834) #4, the values are log2 vehicle/camptothecin viability 0.362; inactive. Against RABGGTB (GeneID 5876) #1 the deposit lists log2 vehicle/camptothecin viability -0.569; inactive. Silencing of RABGGTB (GeneID 5876) #2 resulted in: log2 vehicle/camptothecin viability -0.169; inactive.

For RABGGTB (GeneID 5876) #3 the deposit lists log2 vehicle/camptothecin viability -0.525; inactive. Against RABGGTB (GeneID 5876) #4, the values are log2 vehicle/camptothecin viability 0.0387; inactive. ACADL (GeneID 33) #1 scored log2 vehicle/camptothecin viability 0.0714; inactive. Knock-down of ACADL (GeneID 33) #2 came out at: log2 vehicle/camptothecin viability -0.0914; inactive. Knock-down of ACADL (GeneID 33) #3 came out at: log2 vehicle/camptothecin viability -0.198; inactive. ACADL (GeneID 33) #4 gave log2 vehicle/camptothecin viability -0.153; inactive.

PIK3R5 (GeneID 23533) #1 gave log2 vehicle/camptothecin viability 0.296; inactive. Against PIK3R5 (GeneID 23533) #2 the deposit lists log2 vehicle/camptothecin viability -0.843; inactive. After knock-down of PIK3R5 (GeneID 23533) #3 the results were log2 vehicle/camptothecin viability -0.519; inactive. PIK3R5 (GeneID 23533) #4 gave log2 vehicle/camptothecin viability -0.0438; inactive. With knock-down of DCN (GeneID 1634) #1, the record shows log2 vehicle/camptothecin viability -0.674; inactive. Silencing of DCN (GeneID 1634) #2 came out at: log2 vehicle/camptothecin viability 0.0253; inactive.

DCN (GeneID 1634) #3 showed log2 vehicle/camptothecin viability 0.387; inactive. Against DCN (GeneID 1634) #4, the entry reads log2 vehicle/camptothecin viability -0.191; inactive. Against COPS6 (GeneID 10980) #1 the deposit lists log2 vehicle/camptothecin viability -0.0215; inactive. After knock-down of COPS6 (GeneID 10980) #2, the record shows log2 vehicle/camptothecin viability -0.308; inactive. COPS6 (GeneID 10980) #3 showed log2 vehicle/camptothecin viability -0.48; inactive. Silencing of COPS6 (GeneID 10980) #4 came out at: log2 vehicle/camptothecin viability -0.199; inactive.
